Results published in publication PMC4808027.
These are yes or no findings as the source states them, for the method shown. Binding seen in cells or lysates may run through a third protein. A yes stands for co-enrichment or nearness to the bait. Other partners may have been found.

Chains of the proteins cited; added tags and fusions are not shown.
UniProt O95817: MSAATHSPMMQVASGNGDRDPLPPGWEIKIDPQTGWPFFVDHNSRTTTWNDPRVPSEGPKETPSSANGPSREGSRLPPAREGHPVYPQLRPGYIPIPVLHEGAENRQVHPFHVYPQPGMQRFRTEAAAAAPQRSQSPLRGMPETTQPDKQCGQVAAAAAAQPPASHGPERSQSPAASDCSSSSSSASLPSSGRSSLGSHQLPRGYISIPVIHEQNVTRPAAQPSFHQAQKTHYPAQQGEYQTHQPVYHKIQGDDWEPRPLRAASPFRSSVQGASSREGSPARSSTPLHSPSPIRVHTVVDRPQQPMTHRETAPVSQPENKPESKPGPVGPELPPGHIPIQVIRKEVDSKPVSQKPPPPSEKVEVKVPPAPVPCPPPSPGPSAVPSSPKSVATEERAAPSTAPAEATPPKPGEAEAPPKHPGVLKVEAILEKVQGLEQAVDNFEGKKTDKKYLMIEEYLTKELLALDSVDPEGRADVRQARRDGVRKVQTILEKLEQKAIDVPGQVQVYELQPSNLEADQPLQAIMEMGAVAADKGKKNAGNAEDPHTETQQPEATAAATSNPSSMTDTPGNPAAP
UniProt P11413: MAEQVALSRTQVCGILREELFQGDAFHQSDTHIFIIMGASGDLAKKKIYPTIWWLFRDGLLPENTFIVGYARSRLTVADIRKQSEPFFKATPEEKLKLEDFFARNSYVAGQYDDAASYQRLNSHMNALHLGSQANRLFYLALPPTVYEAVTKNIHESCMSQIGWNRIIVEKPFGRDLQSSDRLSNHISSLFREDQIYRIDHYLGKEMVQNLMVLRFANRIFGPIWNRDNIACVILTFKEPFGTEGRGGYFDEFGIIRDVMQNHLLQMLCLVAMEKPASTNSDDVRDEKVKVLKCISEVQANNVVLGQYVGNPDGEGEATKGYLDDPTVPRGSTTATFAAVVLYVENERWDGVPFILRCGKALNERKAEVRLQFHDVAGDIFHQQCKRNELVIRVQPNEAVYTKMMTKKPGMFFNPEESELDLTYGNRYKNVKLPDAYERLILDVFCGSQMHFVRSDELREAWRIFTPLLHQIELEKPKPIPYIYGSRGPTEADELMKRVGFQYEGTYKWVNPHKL

Target: Flag-tagged BAG3 (Bcl-2 associated athanogene 3) (UniProt O95817)
Experiment: affinity purification with mass spectrometry; anti-Flag immunoprecipitation from HEK293 cells transfected with Flag-BAG3; SDS-PAGE, Coomassie blue, band of about 60 kDa analysed by peptide mass fingerprinting (MALDI-TOF)

With “glucose 6 phosphate dehydrogenase (G6PD), endogenous in HEK293 (from UniProt P11413 1-515) (enzyme)” the binding was “binds”.
